Some of these results come from one statement about several compounds together.
Assay: Phase 1 open-label, fixed-sequence, single-ascending dose and food-effect PK study of MT1621 in adult healthy subjects
Format: in vivo, human
Conditions: single doses of MT1621
Procedure: A phase 1 study was conducted as an open-label, fixed-sequence, single-ascending dose study in adult healthy subjects designed to evaluate the safety, tolerability, PK, and food-effect of MT1621 (dC and dT). To evaluate the PK of MT1621, the combination was administered at three different doses. […]
Each treatment was assessed by blood and urine PK sampling pre-dose and up to 48 hours post-dose for the determination of dC and dT in plasma and urine PK, and possible future analysis of blood for PD biomarkers. […]
After reconstitution in a fixed amount of water or juice, the solution was administered via measured volume to provide the amounts specified in Studies A, B, C, and D. […]

| SMILES | PK variability [%] |
| --- | --- |
| Nc1ccn([C@H]2C[C@H](O)[C@@H](CO)O2)c(=O)n1 [dC, β-D-2′-deoxycytidine] | > 30 |
| Cc1cn([C@H]2C[C@H](O)[C@@H](CO)O2)c(=O)[nH]c1=O [dT, β-D-2′-deoxythymidine] | > 30 |
